PubChem BioAssay AID250 (DTP/NCI, 2004)
The list does not hold the whole screen: it gathers some chemical classes. Other doses and runs of a compound may be missing. T/C is the treated group as % of the vehicle group. Some doses have a count of surviving animals in place of a T/C: the source files T/C as zero there, which appears to mark a toxic dose or a test without result, not a measured value. For some of these results: Counts of survivors are from the toxicity check (mostly the fifth day) where no day follows; animals may have died later. Schedules are NCI's codes, read here as Q, the interval in days (D) or hours (H), X, the number of doses. Some schedules carry Z or #; the key to these is not given. Where survival is the endpoint, the PubChem record calls one and a half times the control and up active, and a quarter to a half above the control has no call in these data; cut-offs in other NCI protocols can differ. Some T/C values carry the count of animals alive at the toxicity check (mostly the fifth day); where neither a count nor a note follows, no animal had died by that day. Some doses were run more than once; the results are listed from low to high.

What was measured:
[1] = test system: BDF1 mice, L1210 leukemia sc, survival T/C; assay: NCI In Vivo Anticancer Drug Screen. Data for tumor model L1210 Leukemia (subcutaneous) in B6D2F1 (BDF1) mice; conditions: T/C endpoint: median survival time, higher T/C = longer survival
Description: (§1) The antitumor activity of compounds was measured in mice bearing transplantable tumors. Survival or tumor size were measured and the results are expressed as the measurement made in the treated group (T) divided by the measurement made in the vehicle treated control group (C). The tumor model used in this assay is L1210 Leukemia (subcutaneous) in B6D2F1 (BDF1) mice

[2] = test system: BDF1 mice, L1210 leukemia sc; assay: as above; conditions: T/C endpoint: median survival time, higher T/C = longer survival
Description: as §1

[3] = dose: 1.8 mg/kg/injection, schedule: Q01DX Z (sc), vehicle: saline
[4] = dose: 3.0 mg/kg/injection, schedule: Q01DX Z (sc), vehicle: saline
[5] = dose: 5.0 mg/kg/injection, schedule: Q01DX Z (sc), vehicle: saline
[6] = dose: 8.4 mg/kg/injection, schedule: Q01DX Z (sc), vehicle: saline
[7] = dose: 14.0 mg/kg/injection, schedule: Q01DX Z (sc), vehicle: saline
[8] = dose: 23.0 mg/kg/injection, schedule: Q01DX Z (sc), vehicle: saline
[9] = dose: 39.0 mg/kg/injection, schedule: Q01DX Z (sc), vehicle: saline
[10] = dose: 108.0 mg/kg/injection, schedule: Q01DX Z (sc), vehicle: saline
[11] = dose: 65.0 mg/kg/injection, schedule: Q01DX Z (sc), vehicle: saline

In the case of `O=P1(N(CCCl)CCCl)OCCCN1CCCl` (stereo not given), the T/C ([1]; dose: 7.8 mg/kg/injection, schedule: Q03HX008 (ip), vehicle: water) is reported as 122 % of control, the T/C ([1]; dose: 7.8 mg/kg/injection, schedule: Q03HX008 (sc), vehicle: water) is reported as 111 % of control and the T/C ([1]; dose: 15.62 mg/kg/injection, schedule: Q03HX008 (ip), vehicle: water) is reported as 155 % of control. For the same molecule, the T/C ([1]; dose: 15.62 mg/kg/injection, schedule: Q03HX008 (sc), vehicle: water) was 155 % of control, the T/C ([1]; dose: 23.0 mg/kg/injection, schedule: Q03HX008 (sc), vehicle: water) was 200 % of control and the T/C ([1]; dose: 31.25 mg/kg/injection, schedule: Q03HX008 (ip), vehicle: water) was 611 % of control. The T/C ([1]; dose: 31.25 mg/kg/injection, schedule: Q03HX008 (sc), vehicle: water) was 544 % of control, the T/C ([1]; dose: 39.0 mg/kg/injection, schedule: Q01DX009 (sc), vehicle: water) was 184 % of control and the T/C ([1]; dose: 39.0 mg/kg/injection, schedule: Q03HX008 (sc), vehicle: water) was 231 % of control. For the same molecule, the T/C ([1]; dose: 62.5 mg/kg/injection, schedule: Q03HX008 (ip), vehicle: water) was 611 % of control, the T/C ([1]; dose: 62.5 mg/kg/injection, schedule: Q03HX008 (sc), vehicle: water) was 611 % of control and the T/C ([1]; dose: 65.0 mg/kg/injection, schedule: Q01DX009 (sc), vehicle: water) was 200 % of control. The T/C ([1]; dose: 65.0 mg/kg/injection, schedule: Q03HX008 (sc), vehicle: water) was 310 % of control, the T/C ([1]; dose: 65.0 mg/kg/injection, schedule: Q04DX003 (sc), vehicle: water) was 121 % of control and the T/C ([1]; dose: 108.0 mg/kg/injection, schedule: Q01DX009 (sc), vehicle: water) was 273 % of control. For the same molecule, the T/C ([1]; dose: 108.0 mg/kg/injection, schedule: Q08DX002 (sc), vehicle: water) was 210 % of control, the T/C ([1]; dose: 125.0 mg/kg/injection, schedule: Q01DX001 (ip), vehicle: water) was 211 % of control and the T/C ([1]; dose: 125.0 mg/kg/injection, schedule: Q01DX001 (sc), vehicle: water) was 166 % of control. For the same molecule, the T/C ([1]; dose: 180.0 mg/kg/injection, schedule: Q01DX001 (sc), vehicle: water) was 189 % of control, the T/C ([1]; dose: 180.0 mg/kg/injection, schedule: Q01DX009 (sc), vehicle: water) was 163 % of control and the survivor count ([1]; dose: 180.0 mg/kg/injection, schedule: Q03HX008 (sc), vehicle: water) was 4 of 8. For the same molecule, the T/C ([1]; dose: 180.0 mg/kg/injection, schedule: Q08DX002 (sc), vehicle: water) was 121 % of control, the T/C ([1]; dose: 250.0 mg/kg/injection, schedule: Q01DX001 (ip), vehicle: water) was 605 % of control and the T/C ([1]; dose: 250.0 mg/kg/injection, schedule: Q01DX001 (sc), vehicle: water) was 205 % of control. The T/C ([1]; dose: 300.0 mg/kg/injection, schedule: Q01DX001 (sc), vehicle: water) was 215 % of control, the T/C ([1]; dose: 300.0 mg/kg/injection, schedule: Q01DX009 (sc), vehicle: water) was 121 % of control and the T/C ([1]; dose: 300.0 mg/kg/injection, schedule: Q04DX003 (sc), vehicle: water) was 431 % of control. For the same molecule, the survivor count ([1]; dose: 500.0 mg/kg/injection, schedule: Q01DX001 (ip), vehicle: water) was 0 of 8, the T/C ([1]; dose: 500.0 mg/kg/injection, schedule: Q01DX001 (sc), vehicle: water, evaluated on day 40) was 105 % of control and the T/C ([1]; dose: 500.0 mg/kg/injection, schedule: Q01DX001 (sc), vehicle: water, evaluated on day 55) was 611 % of control. The T/C ([1]; dose: 500.0 mg/kg/injection, schedule: Q04DX003 (sc), vehicle: water) was 105 % of control, the T/C ([1]; dose: 500.0 mg/kg/injection, schedule: Q08DX002 (sc), vehicle: water) was 105 % of control [6 of 8 alive] and the survivor count ([1]; dose: 833.0 mg/kg/injection, schedule: Q01DX001 (sc), vehicle: water) was 3 of 8. For the same molecule, the survivor count ([1]; dose: 833.0 mg/kg/injection, schedule: Q08DX002 (sc), vehicle: water) was 3 of 8, the survivor count ([1]; dose: 1000.0 mg/kg/injection, schedule: Q01DX001 (ip), vehicle: water) was 0 of 8 and the T/C ([1]; dose: 1000.0 mg/kg/injection, schedule: Q01DX001 (sc), vehicle: water) was 611 % of control. For the same molecule, the survivor count ([1]; dose: 1388.0 mg/kg/injection, schedule: Q01DX001 (sc), vehicle: water) was 0 of 8, the T/C ([2]; dose: 23.0 mg/kg/injection, schedule: Q01DX009 (sc), vehicle: water) was 142 % of control and the T/C ([2]; dose: 39.0 mg/kg/injection, schedule: Q04DX003 (sc), vehicle: water) was 136 % of control. The T/C ([2]; dose: 65.0 mg/kg/injection, schedule: Q08DX002 (sc), vehicle: water) was 147 % of control, the T/C ([2]; dose: 108.0 mg/kg/injection, schedule: Q03HX008 (sc), vehicle: water) was 147 % of control and the T/C ([2]; dose: 108.0 mg/kg/injection, schedule: Q04DX003 (sc), vehicle: water) was 142 % of control. For the same molecule, the T/C ([2]; dose: 180.0 mg/kg/injection, schedule: Q04DX003 (sc), vehicle: water) was 126 % of control and the T/C ([2]; dose: 300.0 mg/kg/injection, schedule: Q08DX002 (sc), vehicle: water) was 126 % of control.
For `O[C@H](CNCCCl)[C@@H](O)CNCCCl`, the T/C [1, 3] was 100 % of control [9 of 10 alive], the T/C [1, 4] was 100 % of control and the survivor count [1, 5] was 6 of 10. The T/C [1, 6] was 100 and 115 % of control [7 of 10 alive], the T/C [1, 7] was 110 % of control [9 of 10 alive] and the T/C [1, 8] was 168 % of control [9 of 10 alive]. For the same molecule, the T/C [1, 9] was 165 % of control, the T/C [1, 10] was 120 % of control and the T/C [2, 7] was 147 % of control [8 of 10 alive]. The T/C [2, 8] was 130 % of control [9 of 10 alive], the T/C [2, 9] was 136 % of control and the T/C [2, 11] was 130 and 136 % of control. For the same molecule, the T/C [2, 10] was 126 % of control.
With `Cc1[nH]c(=O)[nH]c(=O)c1N(CCCl)CCCl` the T/C ([1]; dose: 0.05 mg/kg/injection, schedule: Q01DX Z (sc), vehicle: saline) was 100 % of control, the T/C ([1]; dose: 0.08 mg/kg/injection, schedule: Q01DX Z (sc), vehicle: saline) was 105 % of control [8 of 10 alive] and the T/C ([1]; dose: 0.14 mg/kg/injection, schedule: Q01DX Z (sc), vehicle: saline) was 100 % of control [8 of 10 alive]. For the same molecule, the T/C ([1]; dose: 0.23 mg/kg/injection, schedule: Q01DX Z (sc), vehicle: saline) was 100 % of control [8 of 10 alive], the T/C ([1]; dose: 0.39 mg/kg/injection, schedule: Q01DX Z (sc), vehicle: saline) was 105 % of control and the T/C ([1]; dose: 0.65 mg/kg/injection, schedule: Q01DX Z (sc), vehicle: saline) was 100 % of control [9 of 10 alive]. For the same molecule, the T/C ([1]; dose: 1.08 mg/kg/injection, schedule: Q01DX Z (sc), vehicle: saline) was 110 % of control [8 of 10 alive], the T/C [1, 3] was 100 % of control [9 of 10 alive] and the T/C [1, 4] was 100 % of control. The T/C [1, 5] was 100 % of control [8 of 10 alive], the T/C [1, 6] was 104 and 120 % of control and the T/C [1, 7] was 109 % of control [9 of 10 alive]. The T/C [1, 8] was 118 and 120 % of control, the T/C [1, 9] was 118 % of control and the T/C [1, 11] was 109 % of control. The T/C [2, 7] was 140 % of control.
`O[C@H](CNCCCl)[C@H](O)CNCCCl` was tested, and the survivor count [1, 3] was 6 of 10, the T/C [1, 4] was 100 % of control [9 of 10 alive] and the T/C [1, 5] was 100 % of control [9 of 10 alive]. For the same molecule, the T/C [1, 6] was 105 and 110 % of control [9 of 10 alive], the T/C [1, 7] was 110 and 168 % of control and the T/C [1, 8] was 157 [9 of 10 alive] and 187 % of control. For the same molecule, the T/C [1, 9] was 150, 162, 168 % of control [9 of 10 alive], the T/C [1, 10] was 120 and 150 % of control and the T/C [2, 7] was 126 % of control [8 of 10 alive]. For the same molecule, the T/C [2, 8] was 140 % of control, the T/C [2, 11] was 130, 136, 143 % of control and the T/C [2, 10] was 131 % of control.
